Laboratory results taken from the supplement of paper PMC10735217.
This is one part of the list. Single values are uncertain here, since repeats match poorly.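 Human kidney-derived cells stably carry a construct in which eight TEAD-binding elements drive luciferase, measured by luminescence in a drug-repurposing library screen. A hit is any compound whose signal exceeds the plate mean by more than five robust Z scores.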

Test system: HEK293A TEAD-LUC reporter
Test: TEAD-luciferase reporter activity (YAP activation), robust Z score vs plate; higher = stronger YAP/TEAD activation
Conditions: 24 h

Measured: TEAD-luciferase reporter activity

C=C(C)[C@]12C[C@@H](C)[C@@]34O[C@](Cc5ccccc5)(O[C@@H]1[C@@H]3C=C(COC(=O)Cc1ccc(O)c(OC)c1)C[C@]1(O)C(=O)C(C)=C[C@@H]41)O2 [Resiniferatoxin]
active: compound concentration: 200 nM 18.9 | compound concentration: 2 uM 14.3 | compound concentration: 10 uM 14.6
